No constants are given. Whether binding was seen depends on the method and setting. Some entries that bind do so weakly or less than the wild type. Tags and fused reporters may be left off the sequences shown.
Target: T1, Fc-fused soluble cadherin-6 (extracellular domain of CDH6 fused to the Fc fragment of human IgG1) (human) (UniProt P55285)
T1 sequence: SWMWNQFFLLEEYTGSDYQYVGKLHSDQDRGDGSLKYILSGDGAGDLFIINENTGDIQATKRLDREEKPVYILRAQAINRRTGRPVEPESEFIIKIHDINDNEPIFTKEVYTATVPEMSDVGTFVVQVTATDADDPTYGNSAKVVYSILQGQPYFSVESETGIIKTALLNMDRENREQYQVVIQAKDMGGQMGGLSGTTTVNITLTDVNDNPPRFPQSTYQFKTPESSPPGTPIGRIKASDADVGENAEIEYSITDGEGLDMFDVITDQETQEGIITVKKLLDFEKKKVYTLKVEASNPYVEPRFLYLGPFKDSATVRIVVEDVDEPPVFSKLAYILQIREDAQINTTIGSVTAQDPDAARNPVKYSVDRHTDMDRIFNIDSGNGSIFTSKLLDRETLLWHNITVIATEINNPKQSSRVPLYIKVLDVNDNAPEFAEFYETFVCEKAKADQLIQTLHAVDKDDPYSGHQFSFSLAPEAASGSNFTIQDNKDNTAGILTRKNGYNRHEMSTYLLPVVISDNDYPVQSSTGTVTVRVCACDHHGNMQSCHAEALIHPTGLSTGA
Assay: ELISA of GST-fused GRS proteins with CDH6 (format not described further), normalized OD value

binding: binds
B1: Full (enzyme, not shown: a dimerising Fc or GST; large carriers; small tags and cut ends)
chain: MDGAGAEEVLAPLRLAVRQQGDLVRKLKEDKAPQVDVDKAVAELKARKRVLEAKELALQPKDDIVDRAKMEDTLKRRFFYDQAFAIYGGVSGLYDFGPVGCALKNNIIQTWRQHFIQEEQILEIDCTMLTPEPVLKTSGHVDKFADFMVKDVKNGECFRADHLLKAHLQKLMSDKKCSVEKKSEMESVLAQLDNYGQQELADLFVNYNVKSPITGNDLSPPVSFNLMFKTFIGPGGNMPGYLRPETAQGIFLNFKRLLEFNQGKLPFAAAQIGNSFRNEISPRSGLIRVREFTMAEIEHFVDPSEKDHPKFQNVADLHLYLYSAKAQVSGQSARKMRLGDAVEQGVINNTVLGYFIGRIYLYLTKVGISPDKLRFRQHMENEMAHYACDCWDAESKTSYGWIEIVGCADRSCYDLSCHARATKVPLVAEKPLKEPKTVNVVQFEPSKGAIGKAYKKDAKLVMEYLAICDECYITEMEMLLNEKGEFTIETEGKTFQLTKDMINVKRFQKTLYVEEVVPNVIEPSFGLGRIMYTVFEHTFHVREGDEQRTFFSFPAVVAPFKCSVLPLSQNQEFMPFVKELSEALTRHGVSHKVDDSSGSIGRRYARTDEIGVAFGVTIDFDTVNKTPHTATLRDRDSMRQIRAEISELPSIVQDLANGNITWADVEARYPLFEGQETGKKETIEE
